Measured values from patent US9469556B2, “Ballast water treatment system” (University of Strathclyde, priority 2009, dated 2016).
At least one structure is not confirmed: it was looked up by name or label, or the drawing left a doubt. Some entries share one result that the patent states for a list of compounds.

Test system: organisms in sea water
Assay: ATP luminescence assay of sea samples treated with biocide dyes
Type: cell-based
Conditions: for total ATP levels of sea samples: Millport sea samples, 0.15 mg/L and 0.3 mg/L
Method: Required quantities of each biocide dye were added to the tubes containing the sea sample by means of sterile pipettes in order to give the desired concentrations.
50 mL of each seawater sample was centrifuged at 4,000 rpm for 30 minutes at room temperature. The supernatant was discarded, and the pellets (which may not be visible) were resuspended in 1 mL of ATP Buffer Mix by brisk mixing with a sterile pastette. 0.1 mL of detergent solution was added to each sample. Sample tubes were then placed in a water bath at 90° C. for exactly 5 minutes to lyse seawater organisms. Alternatively the seawater organisms (from 50 mL water) are captured on a 0.22 μm filter membrane and treated with the ATP Buffer Mix, as above.
As a negative control, sterilised seawater (filtered through 0.22 μm filter and/or autoclaved) was used. Where coloured agents were added to the samples, these were also added to the negative control at the same concentration.
One aliquot (0.1 mL) of ATP Assay Mix solution was thawed and added to a sterile transparent 5 mL luminometer tube. This was swirled and allowed to stand at room temperature to allow hydrolysis of endogenous ATP and decrease background.
Immediately after 5 minutes of being at 90° C., 0.1 mL of resuspended seawater sample was added to the reaction tube, swirled briskly for 5 seconds, and immediately measured using a tube luminometer using a 4 second read time.

[1] = dyes used separately (FIG. 4.1)

Compound	total ATP levels of sea samples (13 days incubation, at second day (FIG. 3.1))	total ATP levels of sea samples (after the twelfth day (FIG. 3.1))	total ATP levels of sea samples (at ninth day (FIG. 3.1))	bloom of a rod-like bacterium after [1] [days]	viability of organisms in sea water (as measured by ATP presence) [1]
CCN(CC)c1ccc(C(=C2C=CC(=[N+](CC)CC)C=C2)c2ccccc2)cc1 [Brilliant Green]	decrease in total ATP levels	final decrease in ATP levels	bloom of possible remaining bacteria	7 to 8	incomplete reduction in viability
CN(C)c1ccc(C(=C2C=CC(=[N+](C)C)C=C2)c2ccc(N(C)C)cc2)cc1 [Gentian Violet]	–	–	–	7 to 8	–
